Counter-ions that a name gives are not always drawn. The list shows a part of the results. Single values are uncertain, as repeats are few or missing.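 Labelled rat cortical synaptosomes were engulfed by primary human fetal astrocytes. Engulfment equaled a red/green ratio, corrected for calcein live-cell signal and normalized to the plate median. Compounds were toxic when calcein dropped over 30%, and reduced phagocytosis when below 70% of the median above 5 µM.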
The compounds below were run on Human fetal astrocytes (assay: synaptosome phagocytosis (pHrodo/calcein intensity ratio) relative to plate median of data wells; higher = more phagocytosis). Conditions: 1.39 µM; 24 h.

SMILES	synaptosome phagocytosis
CCn1nc(C(=O)O)c(=O)c2cc3c(cc21)OCO3 [Cinoxacin]	87.9%
CC(C)(C)[C@]1(O)CCN2C[C@H]3c4ccccc4CCc4cccc(c43)[C@@H]2C1 [(+)-Butaclamol hydrochloride]	88.2%
CCCCCC(O)CCCC(=O)O (stereo not given) [5-hydroxydecanoic acid sodium]	104%
CC(C)C1C2CCC(C2)C1N (stereo not given)	107%
CC1(C)CCC2=C(O1)c1ccccc1C(=O)C2=O [beta-Lapachone]	80.4%
Brc1c(NC2=NCCN2)ccc2nccnc12	113%
O=C1NC(=O)C(c2ccccc2)(c2ccccc2)N1 [5,5-Diphenylhydantoin]	130%
CN(C)c1ccc(/C=C2/C(=O)Nc3ccccc32)cc1	121%
CC(=O)NC(C(=O)O)C(C)(C)SN=O (stereo not given) [S-Nitroso-N-acetylpenicillamine]	131%
COc1ccccc1N1CCN(CCN2C(=O)CC3(CCCC3)CC2=O)CC1 [BMY 7378 dihydrochloride]	103%
CN1[C@@H]2CC[C@H]1CC(OC(=O)c1c[nH]c3ccccc13)C2 (stereo not given in full) [3-Tropanyl-indole-3-carboxylate hydrochloride]	115%
N=C(N)SCCc1ccc(CCSC(=N)N)cc1 [1,4-PBIT dihydrobromide]	96.1%
CC(CCc1ccc(O)cc1)NCCc1ccc(O)c(O)c1 (stereo not given) [Dobutamine hydrochloride]	116%
CC[N+](C)(C)Cc1ccccc1Br [Bretylium tosylate]	133%
N#C/C(=C\c1ccc(O)c(O)c1)C(=O)Nc1ccccc1 [Tyrphostin AG 494]	113%

2 entries drawn at random from the list so far, as already listed:
SMILES	synaptosome phagocytosis
N#C/C(=C\c1ccc(O)c(O)c1)C(=O)Nc1ccccc1 [Tyrphostin AG 494]	113%
CCCCCC(O)CCCC(=O)O (stereo not given) [5-hydroxydecanoic acid sodium]	104%

— the supplement of paper PMC10689618
